Values of other authors in patent US20230082311A1, “DRUG FOR CURATIVE THERAPY OF INTRACTABLE HEREDITARY RENAL ALPORT SYNDROME” (NATIONAL UNIVERSITY CORPORATION KUMAMOTO UNIVERSITY, priority 2019, published 2023).
At least one compound was matched to its structure with a doubt left. *1 amine or outer side, *2 acyl side, *3 side chain or, on linkers, in order; H or OH if unused. Where a SMILES comes first, the peptide text is derived from it. [ ]: non-standard residue; d: D form. X1 = COCCN1CCN(C[C@H](C)[C@@H](C(=O)[*:2])N(C)[*:1])CC1; MeBmt = C/C=C/C[C@@H](C)[C@@H](O)[C@H](NC)C(=O)O; NMeL = CN[C@@H](CC(C)C)C(=O)O; NMeV = CN[C@H](C(=O)O)C(C)C; dNMeA = CN[C@H](C)C(=O)O; Abu = CC[C@H](N)C(=O)O

Details: cited from earlier work

Question: For `C/C=C/C[C@@H](C)[C@@H](O)[C@H]1C(=O)N[C@@H](CC)C(=O)N(C)[C@H](C)C(=O)N(C)[C@@H]([C@@H](C)CN2CCN(CCOC)CC2)C(=O)N[C@@H](C(C)C)C(=O)N(C)[C@@H](CC(C)C)C(=O)N[C@@H](C)C(=O)N[C@H](C)C(=O)N(C)[C@@H](CC(C)C)C(=O)N(C)[C@@H](CC(C)C)C(=O)N(C)[C@@H](C(C)C)C(=O)N1C` [NIM258] (cyclo(A[dA][NMeL][NMeL][NMeV][MeBmt][Abu][dNMeA][X1]V[NMeL])), which immunosuppressive action is on record?
Answer: The immunosuppressive action was “has no immunosuppressive action”.
